Measurements as given in the supplement of paper PMC6411743.
± gives the standard deviation of the averaged measurements. The entries are a selection whose mix differs from that of the whole data set. Most values lie at the level of the controls, where differences are scatter.

By UniProt entry, the sequences of proteins in these tests, tags left out. Where a name states a change or a piece, a line headed by the entry shows the natural chain unless it says otherwise.
UniProt P19338, whole entry: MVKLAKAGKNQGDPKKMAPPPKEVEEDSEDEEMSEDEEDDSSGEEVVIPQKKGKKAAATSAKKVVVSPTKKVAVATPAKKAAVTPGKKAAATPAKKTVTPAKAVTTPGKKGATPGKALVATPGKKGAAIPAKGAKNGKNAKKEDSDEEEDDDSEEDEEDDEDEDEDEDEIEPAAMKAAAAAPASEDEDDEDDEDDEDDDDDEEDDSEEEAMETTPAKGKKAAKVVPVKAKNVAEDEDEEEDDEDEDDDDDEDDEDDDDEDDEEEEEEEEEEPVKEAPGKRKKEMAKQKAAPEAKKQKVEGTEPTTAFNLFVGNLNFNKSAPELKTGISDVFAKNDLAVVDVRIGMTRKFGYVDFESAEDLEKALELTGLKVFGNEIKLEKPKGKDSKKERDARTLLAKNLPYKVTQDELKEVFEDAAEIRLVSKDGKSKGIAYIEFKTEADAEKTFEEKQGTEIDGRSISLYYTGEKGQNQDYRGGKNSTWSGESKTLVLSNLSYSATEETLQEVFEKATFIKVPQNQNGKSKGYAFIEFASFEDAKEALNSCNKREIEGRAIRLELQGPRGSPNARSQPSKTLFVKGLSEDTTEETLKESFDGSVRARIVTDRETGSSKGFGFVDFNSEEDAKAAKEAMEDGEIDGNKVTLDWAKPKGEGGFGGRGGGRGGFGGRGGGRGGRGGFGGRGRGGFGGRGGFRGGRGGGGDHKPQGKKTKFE
UniProt P30405: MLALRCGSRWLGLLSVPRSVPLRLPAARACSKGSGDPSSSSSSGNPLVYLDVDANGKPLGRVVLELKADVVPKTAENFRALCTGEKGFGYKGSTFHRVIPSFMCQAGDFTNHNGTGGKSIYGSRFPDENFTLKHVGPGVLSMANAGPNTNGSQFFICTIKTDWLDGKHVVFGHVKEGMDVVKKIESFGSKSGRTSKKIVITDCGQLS
UniProt P35244: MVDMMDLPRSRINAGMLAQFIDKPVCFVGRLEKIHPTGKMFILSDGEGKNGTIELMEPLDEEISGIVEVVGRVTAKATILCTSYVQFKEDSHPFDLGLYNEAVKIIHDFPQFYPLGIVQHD
UniProt P23771: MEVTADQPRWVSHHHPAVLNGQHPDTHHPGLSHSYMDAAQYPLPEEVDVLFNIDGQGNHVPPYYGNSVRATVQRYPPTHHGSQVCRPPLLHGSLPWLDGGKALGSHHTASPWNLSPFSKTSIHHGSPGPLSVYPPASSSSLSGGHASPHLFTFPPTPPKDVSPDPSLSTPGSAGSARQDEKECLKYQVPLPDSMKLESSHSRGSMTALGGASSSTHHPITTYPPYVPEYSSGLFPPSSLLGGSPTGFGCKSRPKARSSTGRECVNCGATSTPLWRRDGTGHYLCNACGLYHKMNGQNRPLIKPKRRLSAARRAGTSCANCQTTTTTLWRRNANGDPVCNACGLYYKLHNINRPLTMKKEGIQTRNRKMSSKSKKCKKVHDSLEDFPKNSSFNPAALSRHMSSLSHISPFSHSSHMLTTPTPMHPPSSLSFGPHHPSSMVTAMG
UniProt P21333, whole entry: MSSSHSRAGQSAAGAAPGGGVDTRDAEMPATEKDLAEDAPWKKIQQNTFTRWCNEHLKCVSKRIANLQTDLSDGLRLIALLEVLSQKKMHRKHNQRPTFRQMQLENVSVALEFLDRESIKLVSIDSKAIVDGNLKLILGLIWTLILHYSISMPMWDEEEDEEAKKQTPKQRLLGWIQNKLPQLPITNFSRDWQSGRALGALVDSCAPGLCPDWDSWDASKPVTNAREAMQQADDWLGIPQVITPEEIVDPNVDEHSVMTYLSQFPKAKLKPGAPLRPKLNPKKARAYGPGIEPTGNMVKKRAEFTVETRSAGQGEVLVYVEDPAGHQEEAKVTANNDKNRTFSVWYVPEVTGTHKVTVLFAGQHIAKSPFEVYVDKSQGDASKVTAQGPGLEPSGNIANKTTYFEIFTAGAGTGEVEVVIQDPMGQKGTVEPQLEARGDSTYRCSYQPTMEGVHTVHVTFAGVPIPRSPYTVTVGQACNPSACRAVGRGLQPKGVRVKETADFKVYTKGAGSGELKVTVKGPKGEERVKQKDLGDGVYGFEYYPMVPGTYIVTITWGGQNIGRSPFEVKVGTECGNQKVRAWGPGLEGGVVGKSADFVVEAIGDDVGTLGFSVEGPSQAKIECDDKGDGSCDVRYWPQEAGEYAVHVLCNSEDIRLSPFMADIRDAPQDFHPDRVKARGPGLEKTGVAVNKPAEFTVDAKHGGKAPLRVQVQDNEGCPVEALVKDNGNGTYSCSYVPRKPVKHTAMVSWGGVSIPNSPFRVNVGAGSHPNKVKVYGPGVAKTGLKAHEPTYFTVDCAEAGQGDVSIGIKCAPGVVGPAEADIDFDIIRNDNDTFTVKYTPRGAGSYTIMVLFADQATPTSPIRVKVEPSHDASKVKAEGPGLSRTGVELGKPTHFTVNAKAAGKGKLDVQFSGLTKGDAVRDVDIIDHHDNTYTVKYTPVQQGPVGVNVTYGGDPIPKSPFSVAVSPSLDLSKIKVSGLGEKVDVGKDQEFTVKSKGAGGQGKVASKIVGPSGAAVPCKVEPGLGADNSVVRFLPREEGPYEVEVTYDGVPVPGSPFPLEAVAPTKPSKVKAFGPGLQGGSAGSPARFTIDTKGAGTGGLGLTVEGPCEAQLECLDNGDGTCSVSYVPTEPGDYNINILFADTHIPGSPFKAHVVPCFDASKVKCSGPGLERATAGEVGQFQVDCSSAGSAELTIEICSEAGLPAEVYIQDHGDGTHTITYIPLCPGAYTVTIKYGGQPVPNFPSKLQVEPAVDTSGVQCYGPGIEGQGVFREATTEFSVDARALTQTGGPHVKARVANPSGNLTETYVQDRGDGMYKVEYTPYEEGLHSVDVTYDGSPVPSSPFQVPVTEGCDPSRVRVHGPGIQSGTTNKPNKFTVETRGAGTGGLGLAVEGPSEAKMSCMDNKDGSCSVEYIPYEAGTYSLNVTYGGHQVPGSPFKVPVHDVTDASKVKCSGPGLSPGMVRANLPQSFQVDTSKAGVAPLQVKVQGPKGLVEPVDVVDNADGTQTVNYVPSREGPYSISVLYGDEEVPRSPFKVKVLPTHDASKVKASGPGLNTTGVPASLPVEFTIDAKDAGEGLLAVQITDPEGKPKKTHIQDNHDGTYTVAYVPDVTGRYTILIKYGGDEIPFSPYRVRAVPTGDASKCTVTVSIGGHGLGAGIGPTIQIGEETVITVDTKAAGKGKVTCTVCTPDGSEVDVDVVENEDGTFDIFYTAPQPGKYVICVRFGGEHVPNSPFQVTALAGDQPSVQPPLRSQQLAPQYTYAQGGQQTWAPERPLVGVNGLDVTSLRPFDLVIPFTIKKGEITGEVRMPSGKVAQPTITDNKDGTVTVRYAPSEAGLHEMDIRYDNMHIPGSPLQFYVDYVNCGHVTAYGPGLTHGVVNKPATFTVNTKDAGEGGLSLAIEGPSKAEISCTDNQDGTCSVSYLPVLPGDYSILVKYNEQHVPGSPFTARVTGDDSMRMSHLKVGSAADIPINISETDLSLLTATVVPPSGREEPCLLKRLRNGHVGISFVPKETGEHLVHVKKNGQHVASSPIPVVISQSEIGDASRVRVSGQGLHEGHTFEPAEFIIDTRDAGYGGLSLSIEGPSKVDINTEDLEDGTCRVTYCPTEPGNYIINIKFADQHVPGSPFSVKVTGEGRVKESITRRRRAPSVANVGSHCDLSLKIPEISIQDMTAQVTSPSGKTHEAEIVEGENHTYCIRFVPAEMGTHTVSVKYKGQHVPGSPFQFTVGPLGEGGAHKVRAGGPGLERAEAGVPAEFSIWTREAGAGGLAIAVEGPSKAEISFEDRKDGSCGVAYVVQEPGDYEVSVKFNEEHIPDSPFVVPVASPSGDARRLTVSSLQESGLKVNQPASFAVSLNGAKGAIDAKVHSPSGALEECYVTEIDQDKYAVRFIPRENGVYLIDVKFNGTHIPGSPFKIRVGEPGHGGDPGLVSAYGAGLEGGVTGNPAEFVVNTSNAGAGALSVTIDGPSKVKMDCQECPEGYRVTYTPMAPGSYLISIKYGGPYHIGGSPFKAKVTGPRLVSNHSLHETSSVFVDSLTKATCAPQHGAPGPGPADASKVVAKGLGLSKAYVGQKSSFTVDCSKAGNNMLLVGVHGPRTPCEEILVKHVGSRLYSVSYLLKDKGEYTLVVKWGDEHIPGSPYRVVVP
UniProt P25788: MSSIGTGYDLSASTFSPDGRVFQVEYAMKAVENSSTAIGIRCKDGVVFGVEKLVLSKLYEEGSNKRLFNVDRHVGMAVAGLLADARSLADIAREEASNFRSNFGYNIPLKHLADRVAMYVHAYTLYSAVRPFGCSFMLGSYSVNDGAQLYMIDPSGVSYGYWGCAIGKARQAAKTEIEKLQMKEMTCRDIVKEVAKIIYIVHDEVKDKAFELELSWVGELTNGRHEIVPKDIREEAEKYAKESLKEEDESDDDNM
UniProt P30044: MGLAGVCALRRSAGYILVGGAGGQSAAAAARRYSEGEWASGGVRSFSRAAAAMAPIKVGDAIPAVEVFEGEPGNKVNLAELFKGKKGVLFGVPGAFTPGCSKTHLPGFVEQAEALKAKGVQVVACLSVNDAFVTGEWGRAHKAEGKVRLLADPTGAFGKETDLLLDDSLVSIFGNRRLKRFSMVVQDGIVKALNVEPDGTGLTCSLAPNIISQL
UniProt P17844: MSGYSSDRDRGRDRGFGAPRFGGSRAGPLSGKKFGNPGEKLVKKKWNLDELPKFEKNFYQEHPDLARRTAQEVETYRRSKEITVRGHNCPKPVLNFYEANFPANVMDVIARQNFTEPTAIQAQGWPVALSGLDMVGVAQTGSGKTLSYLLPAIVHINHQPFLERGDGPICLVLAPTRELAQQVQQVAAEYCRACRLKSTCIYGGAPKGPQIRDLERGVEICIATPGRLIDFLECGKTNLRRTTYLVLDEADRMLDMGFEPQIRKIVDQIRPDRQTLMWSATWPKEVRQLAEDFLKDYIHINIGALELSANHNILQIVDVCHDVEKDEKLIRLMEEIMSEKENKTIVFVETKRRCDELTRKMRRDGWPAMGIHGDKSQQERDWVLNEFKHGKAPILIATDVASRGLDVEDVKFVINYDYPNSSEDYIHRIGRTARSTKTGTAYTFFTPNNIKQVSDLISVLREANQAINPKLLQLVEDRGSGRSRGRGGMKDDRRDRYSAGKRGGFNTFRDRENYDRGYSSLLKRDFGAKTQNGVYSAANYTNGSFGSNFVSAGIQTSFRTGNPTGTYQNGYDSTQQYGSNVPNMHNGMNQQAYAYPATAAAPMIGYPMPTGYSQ
UniProt P25205: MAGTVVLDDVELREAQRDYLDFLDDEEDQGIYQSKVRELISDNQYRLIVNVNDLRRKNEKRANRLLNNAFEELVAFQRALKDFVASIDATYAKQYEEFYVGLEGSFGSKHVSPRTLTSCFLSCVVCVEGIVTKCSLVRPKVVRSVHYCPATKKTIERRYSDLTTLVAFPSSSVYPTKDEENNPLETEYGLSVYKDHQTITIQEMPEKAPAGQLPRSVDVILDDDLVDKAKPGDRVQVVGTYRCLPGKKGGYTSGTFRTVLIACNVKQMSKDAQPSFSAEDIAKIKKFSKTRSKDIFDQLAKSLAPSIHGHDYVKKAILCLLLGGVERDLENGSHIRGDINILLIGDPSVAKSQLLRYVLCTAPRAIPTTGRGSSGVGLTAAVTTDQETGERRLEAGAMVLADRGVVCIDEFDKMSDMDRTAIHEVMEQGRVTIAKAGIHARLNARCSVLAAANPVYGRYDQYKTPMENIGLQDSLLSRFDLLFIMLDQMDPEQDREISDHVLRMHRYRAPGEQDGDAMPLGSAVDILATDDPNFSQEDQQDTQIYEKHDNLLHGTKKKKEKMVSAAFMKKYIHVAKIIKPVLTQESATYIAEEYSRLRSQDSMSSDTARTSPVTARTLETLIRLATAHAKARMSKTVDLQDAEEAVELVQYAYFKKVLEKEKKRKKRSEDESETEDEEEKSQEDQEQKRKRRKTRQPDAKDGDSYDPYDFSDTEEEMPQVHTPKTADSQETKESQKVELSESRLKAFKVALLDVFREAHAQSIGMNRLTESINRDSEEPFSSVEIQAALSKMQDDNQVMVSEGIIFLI
UniProt P18615, whole entry: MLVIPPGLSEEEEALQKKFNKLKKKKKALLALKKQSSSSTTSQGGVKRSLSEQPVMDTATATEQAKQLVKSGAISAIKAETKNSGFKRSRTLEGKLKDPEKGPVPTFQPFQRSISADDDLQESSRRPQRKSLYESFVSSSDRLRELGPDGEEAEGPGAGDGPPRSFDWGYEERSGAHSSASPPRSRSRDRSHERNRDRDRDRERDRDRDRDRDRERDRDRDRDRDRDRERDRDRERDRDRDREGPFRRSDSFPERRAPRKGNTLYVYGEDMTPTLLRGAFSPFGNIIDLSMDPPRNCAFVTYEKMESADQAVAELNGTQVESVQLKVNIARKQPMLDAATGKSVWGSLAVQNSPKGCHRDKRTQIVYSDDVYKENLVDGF
UniProt P24666: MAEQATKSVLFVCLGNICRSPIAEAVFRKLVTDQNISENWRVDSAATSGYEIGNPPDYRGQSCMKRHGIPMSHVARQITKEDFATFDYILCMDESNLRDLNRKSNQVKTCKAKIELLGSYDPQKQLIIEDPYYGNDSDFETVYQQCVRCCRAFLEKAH

Compound: Nc1ncnc2c1ncn2[C@@H]1O[C@H](COP(=O)(O)OP(=O)(O)OP(=O)(O)O)[C@@H](O)[C@H]1O [adenosine triphosphate]
Experiment: NP40-soluble protein abundance relative to vehicle (solubility fold change) (ratio); higher = more soluble protein in presence of ATP
Outline: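 Values are fold changes against the detergent-processed vehicle, based on vsn-normalised intensities. Jurkat crude lysate was treated at eight concentrations from 0.1 to 10 mM (10 min at room temperature, then 3 min at 37 °C), solubilised with 0.8% NP40 and benzonase, ultracentrifuged and analysed by TMT-labelled LC-MS/MS over three independent experiments.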

Target	NP40-soluble protein abundance (concentration: 0.1mM)	NP40-soluble protein abundance (concentration: 0.5mM)
UniProt P20290 and related entries	0.963 ± 0.092	1.01 ± 0.035
TCEA1 (UniProt P23193)	0.988 ± 0.027	0.973 ± 0.016
NMT1 (UniProt P30419)	1.01 ± 0.025	1.07 ± 0.059
AGL (UniProt P35573)	1.04 ± 0.069	1.05 ± 0.048
UniProt P31948 and related entries	0.996 ± 0.14	0.971 ± 0.12
NCL (UniProt P19338)	0.876 ± 0.03	0.699 ± 0.047
UniProt P31327 and related entries	1.02 ± 0.14	0.969 ± 0.12
PPIF (UniProt P30405)	0.989 ± 0.013	0.994 ± 0.032
RPA3 (UniProt P35244)	0.971 ± 0.013	0.964 ± 0.099
P30042 (UniProt P0DPI2)	1.03 ± 0.043	1.06 ± 0.05
UniProt P25705 and related entries	0.976 ± 0.028	0.99 ± 0.059
SDHA (UniProt P31040)	1.03 ± 0.064	1.05 ± 0.059
RBL1 (UniProt P28749)	1.04 ± 0.11	0.997 ± 0.098
UniProt P35609-2	0.882 ± 0.057	0.984 ± 0.11
ATP6V1C1 (UniProt P21283)	1.02 ± 0.048	1.02 ± 0.042
UniProt P25445 and related entries	0.922 ± 0.059	0.891 ± 0.038
ATIC (UniProt P31939)	1.03 ± 0.09	1.05 ± 0.11
CA8 (UniProt P35219)	1.08 ± 0.13	1.09 ± 0.097
CFL1 (UniProt P23528)	0.983 ± 0.037	0.94 ± 0.055
ABCC1 (UniProt P33527)	1.02 ± 0.018	1 ± 0.013
UniProt P29375 and related entries	1.1 ± 0.19	1.09 ± 0.042
TFE3 (UniProt P19532)	0.966 ± 0.099	0.982 ± 0.12
UniProt P35240 and related entries	1.02 ± 0.047	1.03 ± 0.045
ABCD1 (UniProt P33897)	1.12 ± 0.09	1.08 ± 0.023

Target	NP40-soluble protein abundance (concentration: 0.1mM)	NP40-soluble protein abundance (concentration: 0.5mM)
RPL13 (UniProt P26373)	0.937 ± 0.17	0.916 ± 0.1
UniProt P23771 and related entries	0.946 ± 0.015	0.884 ± 0.018
PEBP1 (UniProt P30086)	0.987 ± 0.018	0.982 ± 0.043
CHML (UniProt P26374)	0.9922 ± 0.0069	0.982 ± 0.048
UniProt P32856 and related entries	0.99 ± 0.014	1.03 ± 0.03
UniProt P21333-2|P21333 and related entries	0.992 ± 0.045	1.02 ± 0.072
UniProt P25788 and related entries	0.941 ± 0.065	0.948 ± 0.043
UniProt P26038 and related entries	1.04 ± 0.032	1.01 ± 0.14
UniProt P20339 and related entries	0.972 ± 0.082	0.976 ± 0.026
UniProt P23443 and related entries	1.01 ± 0.066	1.02 ± 0.032
EEF1G (UniProt P26641)	0.991 ± 0.041	1.01 ± 0.046
UniProt P35221 and related entries	0.974 ± 0.027	0.984 ± 0.018
UniProt P24539 and related entries	0.856 ± 0.15	0.839 ± 0.15
UniProt P30044 and related entries	0.999 ± 0.03	0.959 ± 0.069
UniProt P35611 and related entries	0.984 ± 0.019	0.988 ± 0.027
PIK3R1 (UniProt P27986)	1.02 ± 0.04	1.03 ± 0.054
PRKCH (UniProt P24723)	1.05 ± 0.029	1.07 ± 0.043
GART (UniProt P22102)	1 ± 0.046	1 ± 0.016
DDX5 (UniProt P17844)	1.04 ± 0.067	1.08 ± 0.092
PSMB5 (UniProt P28074)	0.965 ± 0.057	0.964 ± 0.031
UniProt P32242	0.912 ± 0.11	0.961 ± 0.14
RFX1 (UniProt P22670)	1.02 ± 0.03	0.9806 ± 0.008
GCHFR (UniProt P30047)	0.909 ± 0.33	0.903 ± 0.14
LRPAP1 (UniProt P30533)	0.949 ± 0.064	0.943 ± 0.03

Two entries from above, set out differently:
Target,NP40-soluble protein abundance (concentration: 0.1mM),NP40-soluble protein abundance (concentration: 0.5mM)
UniProt P32856 and related entries,0.99 ± 0.014,1.03 ± 0.03
UniProt P21333-2|P21333 and related entries,0.992 ± 0.045,1.02 ± 0.072

Quoted from the listing:
NP40-soluble protein abundance (concentration: 0.1mM), UniProt P32242 is entered as 0.912 ± 0.11
NP40-soluble protein abundance (concentration: 0.5mM), ABCC1 (UniProt P33527) is entered as 1 ± 0.013
NP40-soluble protein abundance (concentration: 0.5mM), UniProt P23771 and related entries is entered as 0.884 ± 0.018
NP40-soluble protein abundance (concentration: 0.1mM), CA8 (UniProt P35219) is entered as 1.08 ± 0.13

Later entries

Target	NP40-soluble protein abundance (concentration: 0.1mM)	NP40-soluble protein abundance (concentration: 0.5mM)
RPL22 (UniProt P35268)	1.02 ± 0.023	0.99 ± 0.11
PSMA4 (UniProt P25789)	0.808 ± 0.23	1.09 ± 0.19
MCM3 (UniProt P25205)	1 ± 0.039	0.985 ± 0.04
UniProt P30307 and related entries	1.01 ± 0.059	1.02 ± 0.067
AKT1 (UniProt P31749)	1.05 ± 0.1	1.05 ± 0.094
PLCG2 (UniProt P16885)	1.07 ± 0.072	1.05 ± 0.088
GSTM3 (UniProt P21266)	0.978 ± 0.069	0.955 ± 0.031
UQCRC1 (UniProt P31930)	1.034 ± 0.0098	1.03 ± 0.05
DNAJA1 (UniProt P31689)	1.01 ± 0.036	1.02 ± 0.052
YY1 (UniProt P25490)	1.02 ± 0.028	1.02 ± 0.035
IL2RG (UniProt P31785)	0.958 ± 0.043	0.917 ± 0.05
UniProt P22830 and related entries	1.07 ± 0.063	1.05 ± 0.081
UniProt P35606 and related entries	1.04 ± 0.068	1.04 ± 0.039
UniProt P33981 and related entries	1.024 ± 0.0094	1.07 ± 0.029
GM2A (UniProt P17900)	0.981 ± 0.021	0.937 ± 0.083
CTH (UniProt P32929)	1.06 ± 0.099	1.01 ± 0.063
UniProt P29218 and related entries	1.03 ± 0.035	1.02 ± 0.026
OSBP (UniProt P22059)	1.05 ± 0.065	1.03 ± 0.063
UniProt P25325 and related entries	1.03 ± 0.079	1.09 ± 0.096
UniProt P19525	1.07 ± 0.082	1.11 ± 0.056
UniProt P32019 and related entries	1.09 ± 0.16	1.07 ± 0.13
ERCC3 (UniProt P19447)	0.993 ± 0.056	1.007 ± 0.0086
GTF2F1 (UniProt P35269)	0.982 ± 0.029	0.986 ± 0.041
CHM (UniProt P24386)	1 ± 0.065	1.04 ± 0.063

Target	NP40-soluble protein abundance (concentration: 0.1mM)	NP40-soluble protein abundance (concentration: 0.5mM)
UniProt P17980 and related entries	0.987 ± 0.026	0.965 ± 0.041
UniProt P32519 and related entries	0.987 ± 0.012	1 ± 0.07
UniProt P20936 and related entries	1.02 ± 0.031	0.997 ± 0.048
IGFBP2 (UniProt P18065)	0.981 ± 0.032	0.973 ± 0.024
AHCY (UniProt P23526)	1.02 ± 0.064	1.03 ± 0.068
EIF2S2 (UniProt P20042)	0.9739 ± 0.0085	1.03 ± 0.025
UniProt P18615 and related entries	1.001 ± 0.0076	1.04 ± 0.085
UniProt P31350 and related entries	1.08 ± 0.13	1.07 ± 0.15
ICAM3 (UniProt P32942)	0.895 ± 0.013	0.906 ± 0.054
UniProt P19838 and related entries	1.07 ± 0.068	1.04 ± 0.06
UniProt P30049	0.949 ± 0.078	0.902 ± 0.052
DEK (UniProt P35659)	1 ± 0.023	1.04 ± 0.015
UniProt P34896 and related entries	1.04 ± 0.046	1.02 ± 0.039
UniProt P22314 and related entries	1.02 ± 0.049	1.01 ± 0.045
UniProt P22694-2|P22694-3|P22694	1.04 ± 0.035	1.1 ± 0.06
UniProt P32121 and related entries	0.998 ± 0.074	1.02 ± 0.031
MGAT1 (UniProt P26572)	1.02 ± 0.025	1.104 ± 0.0015
UniProt P29401 and related entries	1.03 ± 0.057	1.05 ± 0.059
ARF4 (UniProt P18085)	1.07 ± 0.17	1.08 ± 0.082
ZKSCAN1 (UniProt P17029)	0.936 ± 0.079	0.96 ± 0.084
UniProt P16591 and related entries	1.04 ± 0.06	1.07 ± 0.065
UniProt P27105 and related entries	1.13 ± 0.16	1.16 ± 0.069
RFC2 (UniProt P35250)	1.11 ± 0.032	1.2 ± 0.049
SDHB (UniProt P21912)	0.99 ± 0.028	0.97 ± 0.018

Target	NP40-soluble protein abundance (concentration: 0.1mM)	NP40-soluble protein abundance (concentration: 0.5mM)
UniProt P35241 and related entries	1 ± 0.039	1.02 ± 0.074
MCM4 (UniProt P33991)	1.02 ± 0.049	1.02 ± 0.045
BLVRB (UniProt P30043)	1.01 ± 0.032	0.9895 ± 0.0052
YWHAQ (UniProt P27348)	0.907 ± 0.09	0.865 ± 0.14
UniProt P23497 and related entries	1.01 ± 0.029	0.997 ± 0.017
UniProt P19793 and related entries	1.01 ± 0.052	1.07 ± 0.15
CBL (UniProt P22681)	1.024 ± 0.0096	1.03 ± 0.048
UniProt P29372 and related entries	1.03 ± 0.034	1.08 ± 0.022
UniProt P33240 and related entries	0.966 ± 0.038	0.962 ± 0.034
UniProt P30154 and related entries	0.974 ± 0.011	0.949 ± 0.014
UniProt P31942 and related entries	0.999 ± 0.05	1.02 ± 0.037
RPL35A (UniProt P18077)	1.04 ± 0.17	0.959 ± 0.12
PRDX2 (UniProt P32119)	0.988 ± 0.099	0.984 ± 0.14
PSMB4 (UniProt P28070)	0.968 ± 0.033	0.981 ± 0.03
ELK1 (UniProt P19419)	0.896 ± 0.17	0.868 ± 0.23
TAL1 (UniProt P17542)	0.922 ± 0.17	0.852 ± 0.18
WEE1 (UniProt P30291)	1 ± 0.04	1.05 ± 0.049
PRKAR1B (UniProt P31321)	1.05 ± 0.046	1.01 ± 0.096
UniProt P18858 and related entries	1 ± 0.028	1.02 ± 0.04
UniProt P33316 and related entries	0.999 ± 0.021	0.992 ± 0.022
UniProt P24666 and related entries	0.997 ± 0.038	0.955 ± 0.03
UniProt P28702 and related entries	0.986 ± 0.047	0.9643 ± 0.0066
UniProt P34897 and related entries	1.01 ± 0.037	0.999 ± 0.022
RPA1 (UniProt P27694)	1.06 ± 0.093	1.05 ± 0.048
